The results are deposited in PubChem (AID504749; NCATS, 2011).

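Malaria parasite (P. falciparum) lines kept in red blood cells; parasite DNA is measured by SYBR Green fluorescence after lysis, 72 h after compound addition.
Each compound was titrated across a series from about 0.000037 to 29 µM.
The number is the fitted AC50, the concentration giving a half-maximal change in signal; a lower value means higher potency, whether the curve shows a decrease or an increase.
Calls follow the curve class and fit quality: every row here is inconclusive, covering signal-raising curves and weak, poorly fitted, partial or highest-dose-only inhibition curves.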

Values are in µM.
Every entry below has the call inconclusive.
Only part of the assay is shown, chiefly results filed as inconclusive.
A potency from a partial, single-point or poor curve is only a rough figure.
Some entries filed as inconclusive have a full curve.

compound: CC[C@H](C)C(=O)O[C@H]1C[C@@H](C)C=C2C=C[C@H](C)[C@H](CC[C@@H]3C[C@@H](O)CC(=O)O3)[C@H]21
setting: CP215
Potency (µM): 19.01
curve: inhibitor, single point

compound: CCC1(CC)C(=O)NC(=O)N(C)C1=O
setting: DIV17
Potency (µM): 21.33
curve: inhibitor, partial curve, poor fit

compound: CCC1(CC)C(=O)NC(=O)N(C)C1=O
setting: CP266
Potency (µM): 21.33
curve: inhibitor, single point

compound: CCC1(CC)C(=O)NC(=O)N(C)C1=O
setting: W2
Potency (µM): 0.0043
curve: inhibitor, full curve, poor fit

compound: CN1CCN(c2cc3c(nn2)Oc2ccccc2N3C)CC1
setting: CP266
Potency (µM): 1.901
curve: inhibitor, single point

compound: Nc1nc2[nH]cc(CCc3ccc(C(=O)NC(CCC(=O)O)C(=O)O)cc3)c2c(=O)[nH]1 (centres unmarked)
setting: CP305
Potency (µM): 12
curve: inhibitor, partial curve

compound: Nc1nc2[nH]cc(CCc3ccc(C(=O)NC(CCC(=O)O)C(=O)O)cc3)c2c(=O)[nH]1 (centres unmarked)
setting: CP269
Potency (µM): 16.94
curve: inhibitor, single point

compound: Nc1nc2[nH]cc(CCc3ccc(C(=O)NC(CCC(=O)O)C(=O)O)cc3)c2c(=O)[nH]1 (centres unmarked)
setting: CP268
Potency (µM): 4.776
curve: inhibitor, partial curve

compound: Nc1nc2[nH]cc(CCc3ccc(C(=O)NC(CCC(=O)O)C(=O)O)cc3)c2c(=O)[nH]1 (centres unmarked)
setting: CP203
Potency (µM): 19.01
curve: inhibitor, single point

compound: Nc1nc2[nH]cc(CCc3ccc(C(=O)NC(CCC(=O)O)C(=O)O)cc3)c2c(=O)[nH]1 (centres unmarked)
setting: DIV30
Potency (µM): 10.69
curve: inhibitor, partial curve, poor fit

compound: Nc1nc2[nH]cc(CCc3ccc(C(=O)NC(CCC(=O)O)C(=O)O)cc3)c2c(=O)[nH]1 (centres unmarked)
setting: AA1029
Potency (µM): 1.585
curve: inhibitor, partial curve, poor fit

compound: Nc1nc2[nH]cc(CCc3ccc(C(=O)NC(CCC(=O)O)C(=O)O)cc3)c2c(=O)[nH]1 (centres unmarked)
setting: DIV17
Potency (µM): 7.569
curve: inhibitor, partial curve

compound: Nc1nc2[nH]cc(CCc3ccc(C(=O)NC(CCC(=O)O)C(=O)O)cc3)c2c(=O)[nH]1 (centres unmarked)
setting: P93_24
Potency (µM): 5.623
curve: inhibitor, partial curve, poor fit

compound: Nc1nc2[nH]cc(CCc3ccc(C(=O)NC(CCC(=O)O)C(=O)O)cc3)c2c(=O)[nH]1 (centres unmarked)
setting: CP265
Potency (µM): 15.85
curve: inhibitor, single point

compound: NCc1ccccc1Sc1ccccc1CO
setting: TAB109
Potency (µM): 12.59
curve: inhibitor, single point

compound: NCc1ccccc1Sc1ccccc1CO
setting: GB4
Potency (µM): 13.46
curve: inhibitor, partial curve

compound: NCc1ccccc1Sc1ccccc1CO
setting: PC26
Potency (µM): 9.528
curve: inhibitor, partial curve

compound: NCc1ccccc1Sc1ccccc1CO
setting: N140
Potency (µM): 10
curve: inhibitor, single point

compound: NCc1ccccc1Sc1ccccc1CO
setting: PAD
Potency (µM): 0.8913
curve: inhibitor, partial curve

compound: NCc1ccccc1Sc1ccccc1CO
setting: CP335
Potency (µM): 12
curve: inhibitor, partial curve, poor fit

compound: NCc1ccccc1Sc1ccccc1CO
setting: CP268
Potency (µM): 15.1
curve: inhibitor, partial curve, poor fit

compound: N[C@@H](Cc1ccc(O)c(O)c1)C(=O)O
setting: W2
Potency (µM): 0.4775
curve: inhibitor, full curve

compound: N[C@@H](Cc1ccc(O)c(O)c1)C(=O)O
setting: CP335
Potency (µM): 1.901
curve: inhibitor, single point

compound: NC1CCN(c2cccc(Cl)n2)CC1
setting: CP203
Potency (µM): 19.01
curve: inhibitor, partial curve, poor fit

compound: NC1CCN(c2cccc(Cl)n2)CC1
setting: CP297
Potency (µM): 15.1
curve: inhibitor, partial curve

Some entries from above, unchanged:

- Nc1nc2[nH]cc(CCc3ccc(C(=O)NC(CCC(=O)O)C(=O)O)cc3)c2c(=O)[nH]1 (centres unmarked) [CP305] | Potency 12 µM (inhibitor, partial curve)
- NCc1ccccc1Sc1ccccc1CO [CP335] | Potency 12 µM (inhibitor, partial curve, poor fit)
- N[C@@H](Cc1ccc(O)c(O)c1)C(=O)O [W2] | Potency 0.4775 µM (inhibitor, full curve)